Values from PubChem BioAssay AID1224826 (NIAID, 2016)

- Screen: 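Knock-downs that raise or lower Tnf reporter signal after endotoxin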 (primary screen)
- Cells: RAW264.7 G9 macrophages from mouse bearing reporters for p65 (GFP) and the Tnf promoter (mCherry)
- Reagent: siRNA pool against mouse genes, 100 nM
- Duration: 16 h of LPS stimulation, after 2 days of siRNA transfection
- Challenge: bacterial lipopolysaccharide (Salmonella minnesota R595), 10 ng/ml
- Detection: 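Imaged Tnf reporter mCherry in nuclei, minus background, normalised per plate to the median and expressed as robust z-scores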
- Direction: Tnf reporter robust z-score: higher = stronger Tnf promoter reporter signal after LPS
- Call rule: 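Called active when robust z-score is at most -1.3, matching the median of the Tlr4 knock-down control, or over 3; control wells and wells with under 50 cells never active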
- Meaning of the calls: active = Tnf reporter clearly lowered or raised; inactive = no clear change in Tnf reporter
This is a random part of about 17,000 deposited reagents. About 1,110 of them (6.6%) were called active. 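Active means lowered or raised reporter signal; replicate intensities are raw and not normalised per plate.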 Entries without a mark were called inactive. Reagents against one gene are numbered here. Not all columns of the deposit are shown. Reagent sequences are not shown.

The opening 2 entries, ahead of the listing:
{"target gene": "Actl7a", "reagent no.": 1, "Tnf reporter robust z-score": "-1.37 (active)", "fewer than 50 cells in well": "enough cells in well"}
{"target gene": "Asb5", "reagent no.": 1, "Tnf reporter robust z-score": 2.72, "fewer than 50 cells in well": "enough cells in well"}

The listing, from the first entry:
{"target gene": "Actl7a", "reagent no.": 1, "Tnf reporter robust z-score": "-1.37 (active)", "fewer than 50 cells in well": "enough cells in well"}
{"target gene": "Asb5", "reagent no.": 1, "Tnf reporter robust z-score": 2.72, "fewer than 50 cells in well": "enough cells in well"}
{"target gene": "Nlrp4b", "reagent no.": 1, "Tnf reporter robust z-score": -1.11, "fewer than 50 cells in well": "enough cells in well"}
{"target gene": "Bbx", "reagent no.": 1, "fewer than 50 cells in well": "fewer than 50 cells per well; well left out of calls"}
{"target gene": "Phf23", "reagent no.": 1, "Tnf reporter robust z-score": 1.76, "fewer than 50 cells in well": "enough cells in well"}
{"target gene": "Fbxw26", "reagent no.": 1, "Tnf reporter robust z-score": 0.51, "fewer than 50 cells in well": "enough cells in well"}
{"target gene": "Mmgt2", "reagent no.": 1, "Tnf reporter robust z-score": -0.31, "fewer than 50 cells in well": "enough cells in well"}
{"target gene": "Myt1l", "reagent no.": 1, "Tnf reporter robust z-score": -0.4, "fewer than 50 cells in well": "enough cells in well"}
{"target gene": "Pnma2", "reagent no.": 1, "fewer than 50 cells in well": "fewer than 50 cells per well; well left out of calls"}
{"target gene": "Ccdc137", "reagent no.": 1, "fewer than 50 cells in well": "fewer than 50 cells per well; well left out of calls"}
{"target gene": "Ndrg1", "reagent no.": 1, "Tnf reporter robust z-score": -0.81, "fewer than 50 cells in well": "enough cells in well"}
{"target gene": "Ndrg1", "reagent no.": 2, "Tnf reporter robust z-score": -0.94, "fewer than 50 cells in well": "enough cells in well"}
{"target gene": "Or8w1", "reagent no.": 1, "Tnf reporter robust z-score": 0.18, "fewer than 50 cells in well": "enough cells in well"}
{"target gene": "Spdye4b", "reagent no.": 1, "fewer than 50 cells in well": "fewer than 50 cells per well; well left out of calls"}
